Data as given in US20230270882A1.
Results are given in words; binding and its absence hold for the method and conditions named. Some results given as binding are weak or reduced against the parent protein; the word gives no strength.

Sequences of proteins named here, by UniProt entry; tags and fusion partners are left off. A change or cut given only in a name is not applied to a line headed by its entry. Residues count along the entry.
UniProt Q9NZQ7: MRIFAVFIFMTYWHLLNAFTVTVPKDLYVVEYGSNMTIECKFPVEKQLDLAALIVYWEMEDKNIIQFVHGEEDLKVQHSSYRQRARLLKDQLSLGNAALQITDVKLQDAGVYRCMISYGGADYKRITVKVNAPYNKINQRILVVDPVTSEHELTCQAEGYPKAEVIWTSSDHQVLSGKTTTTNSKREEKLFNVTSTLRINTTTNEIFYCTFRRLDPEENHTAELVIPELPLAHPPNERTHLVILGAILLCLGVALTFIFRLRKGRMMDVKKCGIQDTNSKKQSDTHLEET
PD-L1 on 786-O cells (PD-L1 overexpressing human renal cell carcinoma cell line): residues 19-290 of Q9NZQ7
PD-L1 proteins (R&D systems): residues 19-239 of Q9NZQ7

Tests used:
[1] = molecular target: PD-L1 proteins (R&D systems) (UniProt Q9NZQ7); assay: SPR
[2] = molecular target: PD-L1 on 786-O cells (PD-L1 overexpressing human renal cell carcinoma cell line) (human) (UniProt Q9NZQ7); assay: fluorescence microscopy on 786-O and MCF-7 cells

binding [1] | binding [2] | Binder
binds | binds | HKVWHWESPSGQWDTWAA (conjugated to the dendrimer through the lysine that was substituted for a valine) [G7-pL1TZ]
binds |  | HKVWHWESPSGQWDTWAA [pL1TZ]
